Experimental findings from patent publication US4798834A, “Optionally substituted (3β-9,10-didehydro-2,3-dihydro ergoline as serotonergic function enhancement” (Eli Lilly and Company, priority 1987, dated 1989) are described below.

This test deals with 5-HT1 receptor. The test is described as follows: binding to 5-HT1 sites ([3H]serotonin displacement, rat brain frontal cortex). The settings on record: 2 nM [3H]serotonin. The arrangement: species or system rat (Wistar). Here is the method: All radioactive ligands were obtained from New England Nuclear, Boston, Mass., USA. Specific binding was determined as the difference between total binding and nonspecific binding. Eleven concentrations of each of the compounds tested were used between 0.1 and 10,000 nM. All samples were run in duplicate.

As usually defined, the IC50 is the concentration needed to halve the response being measured. Read a high IC50 as a need for much substance. Take `O=C(CCCN1CCC2(CC1)C(=O)NCN2c1ccccc1)c1ccc(F)cc1` [spiperone, reference compound]: the IC50 worked out at 400 nM.
